Experiment [1] has as its target T1, Ser358Ala HA–SIK2 adenovirally expressed in primary rat adipocytes (human) (UniProt Q9H0K1).
T1 sequence: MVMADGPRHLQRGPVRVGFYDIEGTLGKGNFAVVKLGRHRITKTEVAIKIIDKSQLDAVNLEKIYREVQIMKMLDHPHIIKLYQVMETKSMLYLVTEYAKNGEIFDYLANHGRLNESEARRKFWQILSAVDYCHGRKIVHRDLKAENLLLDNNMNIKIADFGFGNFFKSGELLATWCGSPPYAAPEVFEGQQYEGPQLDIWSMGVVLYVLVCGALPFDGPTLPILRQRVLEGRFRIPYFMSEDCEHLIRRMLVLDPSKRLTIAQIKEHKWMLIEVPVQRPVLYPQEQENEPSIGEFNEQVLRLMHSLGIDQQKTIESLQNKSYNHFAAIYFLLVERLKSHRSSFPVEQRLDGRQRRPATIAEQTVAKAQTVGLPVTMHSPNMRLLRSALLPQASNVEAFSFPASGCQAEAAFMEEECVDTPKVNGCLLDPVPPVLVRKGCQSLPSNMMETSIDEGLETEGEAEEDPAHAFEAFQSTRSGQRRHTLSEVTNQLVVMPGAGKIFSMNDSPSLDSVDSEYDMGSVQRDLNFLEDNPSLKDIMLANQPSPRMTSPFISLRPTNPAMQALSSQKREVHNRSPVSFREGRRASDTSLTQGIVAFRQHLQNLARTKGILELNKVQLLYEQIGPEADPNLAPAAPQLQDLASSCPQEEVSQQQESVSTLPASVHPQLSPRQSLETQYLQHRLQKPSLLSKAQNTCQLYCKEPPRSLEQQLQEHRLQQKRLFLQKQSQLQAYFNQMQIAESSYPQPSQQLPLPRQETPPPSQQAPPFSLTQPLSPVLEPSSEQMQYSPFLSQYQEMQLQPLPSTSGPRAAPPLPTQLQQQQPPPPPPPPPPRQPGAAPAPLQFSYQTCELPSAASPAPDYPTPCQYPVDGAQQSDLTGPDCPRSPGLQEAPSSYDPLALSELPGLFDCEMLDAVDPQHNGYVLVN
Description: co-IP; anti-HA immunoprecipitates of HA–SIK2 blotted for endogenous 14-3-3; HEK-293 cells treated with forskolin, primary rat adipocytes with CL 316,243 (100 nM, 30 min).

The target in experiment [2] is T2, Ser587Ala HA–SIK2 adenovirally expressed in primary rat adipocytes (human) (UniProt Q9H0K1).
T2 sequence: T1 sequence with A358S, S587A
The experiment is described as above.

Positions count from the first letter of the chain named. No constants are given. Whether binding was seen depends on the method and setting. Binding seen in cells or lysates may run through a third protein. For some assays here: A result given as binding can be weak or reduced; the word gives no strength. Sequences can lack the tags named with a protein.

Here are results for one substance from paper PMC3631101.

Turning to “endogenous 14-3-3 of primary rat adipocytes”, the results for the binding entry in experiment [1] and in experiment [2] were “no binding” and “binds”, respectively.
